Assay results from publication PMC6377630, “NapM enhances the survival of Mycobacterium tuberculosis under stress and in macrophages” (Communications Biology, 2019).
No constants are given. Whether binding was seen depends on the method and setting. Binding calls can cover weak binding; strength is not graded here. Where a sequence is shown, tags or fusion partners need not be part of it.

Protein sequences, listed by entry. Tags and fused reporters are not part of them. Lines headed by an entry give the natural chain unless they say otherwise; changes in a name come on top.
UniProt P71704: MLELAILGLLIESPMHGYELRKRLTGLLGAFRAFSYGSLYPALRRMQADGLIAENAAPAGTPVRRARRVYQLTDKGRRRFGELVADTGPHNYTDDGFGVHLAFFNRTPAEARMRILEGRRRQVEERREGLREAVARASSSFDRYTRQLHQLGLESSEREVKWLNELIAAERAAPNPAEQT

Target: T1, DnaA, bacterial two-hybrid fusion (M. tuberculosis) (UniProt P9WNW3)
T1 sequence: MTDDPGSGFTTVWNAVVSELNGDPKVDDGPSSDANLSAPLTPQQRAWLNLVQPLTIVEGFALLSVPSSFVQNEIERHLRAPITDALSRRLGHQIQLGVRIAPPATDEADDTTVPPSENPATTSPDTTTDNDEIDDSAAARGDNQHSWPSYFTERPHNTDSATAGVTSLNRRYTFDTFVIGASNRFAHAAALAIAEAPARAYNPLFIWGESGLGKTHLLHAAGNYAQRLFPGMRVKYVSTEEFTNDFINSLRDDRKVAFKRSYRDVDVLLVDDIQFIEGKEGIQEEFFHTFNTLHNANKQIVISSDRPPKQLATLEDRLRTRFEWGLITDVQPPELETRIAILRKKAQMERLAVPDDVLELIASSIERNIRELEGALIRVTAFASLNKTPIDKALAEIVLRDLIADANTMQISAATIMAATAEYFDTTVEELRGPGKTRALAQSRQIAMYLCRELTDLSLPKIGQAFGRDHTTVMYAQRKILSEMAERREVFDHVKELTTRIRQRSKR
Assay: two-hybrid

NapM C-terminal domain (CTD), bacterial two-hybrid fusion (M. tuberculosis) (domain or fragment)
binding: binds

NapM, bacterial two-hybrid fusion (from UniProt P71704)
binding: binds
